Experimental data reported in PubChem BioAssay AID1347075 (National Center for Advancing Translational Sciences (NCATS), 2019).
Hit rate of the full screen: of about 400,000 compounds, about 5,500 (1.4%) were called active. The shares of active, inactive and inconclusive entries below differ from those in the screen. Calls follow the shape of the dose curve; as a rule, active = well fitted cell-killing curve with a large enough effect; inconclusive = small, poorly fitted or top-dose-only effect, or effect the other way; inactive = flat fitted curve, though single readings scatter. A potency beside an inconclusive call is a rough fit, not a confirmed value.

Experiment: qHTS assay for MDR1-selective chemotherapeutics: Primary screen using the parental adenocarcinoma cell KB-3-1; also: nearly all actives have a fitted effect of over 60% in size
Settings: KB-3-1 viability, CellTiter-Glo ATP luminescence, 72 h; activity change, negative = cytotoxic: at 46.1 µM (top of the series)
Method in brief: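 Here the drug-naive KB-3-1 line serves as comparator for MDR sub-line selectivity; cells received compound titrations, 72 h at 37 °C, then CellTiter-Glo readout.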
% is scaled to controls: 0 for no effect and ±100 for the full control effect; potency is read from the fitted curve at half-maximal effect.

| Compound | Potency | activity change, negative = cytotoxic |
| --- | --- | --- |
| O=[N+]([O-])c1cccc(CN2CC=C(c3ccc(F)cc3)CC2)c1 | active: 9.2 µM |  |
| CC1=C(N2CC2)C(=O)C(CO)=C(N2CC2)C1=O | active: 0.461 µM |  |
| COc1cccc(OC)c1CN1CCCC(C(=O)c2cccc(Cl)c2)C1 (stereo unspecified) |  | inactive: -5.66% |
| O=[N+]([O-])c1ccc(Cl)c([N+](=O)[O-])c1 | inconclusive: 16.4 µM [cytotoxic, single point] |  |
| Cc1ccc(-n2c(/C=C/c3cccc4ccccc34)nc3ccccc3c2=O)cc1 |  | inactive: 23.9% |
| COC(=O)C1=C(c2ccc(Cl)c(C(F)(F)F)c2)C[C@@H]2CC[C@H]1N2C(=O)N1CCC(O)(c2ccc(Cl)cc2)CC1 | inconclusive: 29.1 µM [cytotoxic, single point] |  |
| COc1ccc(C(c2nnnn2-c2ccc(OC)cc2)N2CCC(n3c(=O)[nH]c4ccccc43)CC2)cc1 (stereo unspecified) | inconclusive: 29.1 µM [cytotoxic, single point] |  |
| C=C1C=C(C(F)F)n2ncc(C(=O)NCc3ccccc3F)c2N1 |  | inconclusive: -8.7% |
| COc1ccc(-n2c(/C=C3\C(=O)Nc4ccccc43)nc3ccccc3c2=O)cc1 |  | inactive: 2.58% |
| CC(=NC(C)c1ccccc1)c1c(O)[nH]c(=O)[nH]c1=O (stereo unspecified) |  | inactive: 3.99% |
| c1ccc2c(c1)[IH]c1ccccc1-2 | inconclusive: 9.2 µM [cytotoxic, partial curve, poor fit] |  |
| O=c1[nH]c2ccccc2n1C1CCN(C(CCc2ccccc2)c2nnnn2-c2ccc3c(c2)OCCO3)CC1 (stereo unspecified) | inconclusive: 29.1 µM [cytotoxic, single point] |  |
| O=C(c1cccc(N2CCCC2=O)c1)N1CCC2(CC1)OCCO2 |  | inactive: -3.35% |
| CC1=CC2/C=C(\C)CCC(O)C(O)/C=C/C(=O)C23C(=O)NC(CC(C)C)C3C1C (stereo unspecified) | active: 4.61 µM |  |
| CN1C(=O)CCC2(C)C1=CCC1C2CCC2(C)C1CCC2(C)O (stereo unspecified) | inconclusive: 3.66 µM [rising, full curve] |  |
| O=c1[nH]c(=O)n(-c2ccccc2)c(O)c1/C=C1/C(c2ccccc2)=Nc2ccccc21 | active: 3.26 µM |  |
| [O-]c1ccccc1-[n+]1c(-c2ccccc2)cc(-c2ccccc2)cc1-c1ccccc1 | active: 11.6 µM |  |
| Brc1ccc(-[n+]2c(-c3ccccc3)cc(-c3ccccc3)cc2-c2ccccc2)cc1 | inconclusive: 20.6 µM [cytotoxic, single point] |  |
| O=C(c1ccc2c(c1)ncn2C1CCCCCC1)N1CCC2(CC1)OCCO2 | inconclusive: 29.1 µM [cytotoxic, single point] |  |
| CC(=O)O[C@@]12CO[C@@H]1C[C@@H](O)[C@@]1(C)C(=O)[C@H](O)C3=C(C)[C@@H](OC(=O)[C@H](O)[C@@H](NC(=O)c4ccccc4)c4ccccc4)C[C@@](O)([C@@H](OC(=O)c4ccccc4)C12)C3(C)C (stereo partly specified) | active: 0.0103 µM |  |
| CC(=O)OC1C(O)C(C)OC(OC2C(OC(=O)C3CCC4C(C3)OC3(CC(OC(=O)/C=C/c5ccccc5)C(C)CO3)C43CO3)OC(C)C(O)C2OC(C)=O)C1O (stereo unspecified) | active: 0.184 µM |  |
| COC(=O)C1=C(c2cccc(OCc3ccccc3)c2)C[C@@H]2CC[C@H]1N2C(=O)NCc1ccc(Br)cc1 | inconclusive: 16.4 µM [cytotoxic, partial curve, poor fit] |  |
| CC1CCCCC1NC1CCN(C)CC1 (stereo unspecified) |  | inactive: 3.31% |
| Cc1ccc2c(c1)C1CN(C)CCC1N2C(=O)c1cccnc1Cl (stereo unspecified) |  | inactive: -1.27% |

Part of the list above in order of formula weight, largest number first:

| Compound | Potency | activity change, negative = cytotoxic |
| --- | --- | --- |
| CC(=O)O[C@@]12CO[C@@H]1C[C@@H](O)[C@@]1(C)C(=O)[C@H](O)C3=C(C)[C@@H](OC(=O)[C@H](O)[C@@H](NC(=O)c4ccccc4)c4ccccc4)C[C@@](O)([C@@H](OC(=O)c4ccccc4)C12)C3(C)C (stereo partly specified) | active: 0.0103 µM |  |
| CC(=O)OC1C(O)C(C)OC(OC2C(OC(=O)C3CCC4C(C3)OC3(CC(OC(=O)/C=C/c5ccccc5)C(C)CO3)C43CO3)OC(C)C(O)C2OC(C)=O)C1O (stereo unspecified) | active: 0.184 µM |  |
| COC(=O)C1=C(c2ccc(Cl)c(C(F)(F)F)c2)C[C@@H]2CC[C@H]1N2C(=O)N1CCC(O)(c2ccc(Cl)cc2)CC1 | inconclusive: 29.1 µM [cytotoxic, single point] |  |
| COC(=O)C1=C(c2cccc(OCc3ccccc3)c2)C[C@@H]2CC[C@H]1N2C(=O)NCc1ccc(Br)cc1 | inconclusive: 16.4 µM [cytotoxic, partial curve, poor fit] |  |
| O=c1[nH]c2ccccc2n1C1CCN(C(CCc2ccccc2)c2nnnn2-c2ccc3c(c2)OCCO3)CC1 (stereo unspecified) | inconclusive: 29.1 µM [cytotoxic, single point] |  |
| COc1ccc(C(c2nnnn2-c2ccc(OC)cc2)N2CCC(n3c(=O)[nH]c4ccccc43)CC2)cc1 (stereo unspecified) | inconclusive: 29.1 µM [cytotoxic, single point] |  |
| Brc1ccc(-[n+]2c(-c3ccccc3)cc(-c3ccccc3)cc2-c2ccccc2)cc1 | inconclusive: 20.6 µM [cytotoxic, single point] |  |
| O=c1[nH]c(=O)n(-c2ccccc2)c(O)c1/C=C1/C(c2ccccc2)=Nc2ccccc21 | active: 3.26 µM |  |
| CC1=CC2/C=C(\C)CCC(O)C(O)/C=C/C(=O)C23C(=O)NC(CC(C)C)C3C1C (stereo unspecified) | active: 4.61 µM |  |
| [O-]c1ccccc1-[n+]1c(-c2ccccc2)cc(-c2ccccc2)cc1-c1ccccc1 | active: 11.6 µM |  |
| Cc1ccc(-n2c(/C=C/c3cccc4ccccc34)nc3ccccc3c2=O)cc1 |  | inactive: 23.9% |
| C=C1C=C(C(F)F)n2ncc(C(=O)NCc3ccccc3F)c2N1 |  | inconclusive: -8.7% |
| O=C(c1cccc(N2CCCC2=O)c1)N1CCC2(CC1)OCCO2 |  | inactive: -3.35% |
| CN1C(=O)CCC2(C)C1=CCC1C2CCC2(C)C1CCC2(C)O (stereo unspecified) | inconclusive: 3.66 µM [rising, full curve] |  |
| O=[N+]([O-])c1cccc(CN2CC=C(c3ccc(F)cc3)CC2)c1 | active: 9.2 µM |  |
| CC(=NC(C)c1ccccc1)c1c(O)[nH]c(=O)[nH]c1=O (stereo unspecified) |  | inactive: 3.99% |
| CC1CCCCC1NC1CCN(C)CC1 (stereo unspecified) |  | inactive: 3.31% |
| O=[N+]([O-])c1ccc(Cl)c([N+](=O)[O-])c1 | inconclusive: 16.4 µM [cytotoxic, single point] |  |

Remaining list, next part

| Compound | Potency | activity change, negative = cytotoxic |
| --- | --- | --- |
| O=C(Cc1ccccc1)N1CCN(Cc2ccc(F)cc2)CC1 |  | inactive: 1.82% |
| CN(CCc1ccccc1)Cc1c[nH]c2ccccc12 | inconclusive: 25.9 µM [cytotoxic, single point] |  |
| COC(=O)C1=C(c2ccc(OCc3ccccc3)cc2)C[C@@H]2CC[C@H]1N2C(=O)NCCCc1ccccc1 | inconclusive: 29.1 µM [cytotoxic, single point] |  |
| O=C1NCN(c2ccccc2)C12CCN(C(c1cc3ccccc3o1)c1nnnn1C1CCCC1)CC2 (stereo unspecified) | inconclusive: 29.1 µM [cytotoxic, single point] |  |
| COC(=O)C1=C(c2ccc(-c3ccccc3)c(F)c2)C[C@@H]2CC[C@H]1N2C(=O)NC(C)C | inconclusive: 18.4 µM [cytotoxic, single point] |  |
| Cn1c(O)c(C=NCCN2CCNCC2)c(=O)[nH]c1=O |  | inactive: -0.0449% |
| Cc1cccc(-n2c(O)c(/C=C3/C(c4ccccc4)=Nc4ccccc43)c(=O)[nH]c2=O)c1 | active: 5.17 µM |  |
| CC(=O)OC1CCC2(C)C(=CC(=O)C3C2CCC2(C)C(OC(C)=O)CCC32)C1 (stereo unspecified) |  | inactive: 3.44% |
| COc1cc([C@@H]2c3cc4c(cc3C[C@H]3COC(=O)[C@@H]32)OCO4)cc(OC)c1O | inconclusive: 0.0052 µM [cytotoxic, full curve, poor fit] |  |
| O=P1(c2ccccc2)Nc2ccccc2N1c1ccccc1 (stereo unspecified) |  | inactive: 0% |
| COc1cc2c(c(OC)c1OC)-c1ccc(O)cc1[C@@H](NC(C)=O)CC2 | active: 0.0164 µM |  |
| COc1cc2c(cc1O)C[C@H]1NCCc3cc4c(c-2c31)OCO4 |  | inconclusive: 0% |
| c1ccc2[nH]c(CCN3CCCCC3)nc2c1 |  | inactive: -26% |
| O=[N+]([O-])c1ccc(C(c2ccc([N+](=O)[O-])cc2)c2ccc([N+](=O)[O-])cc2)cc1 | inconclusive: 29.1 µM [cytotoxic, single point] |  |
| COC(=O)C1=C(c2ccc(OC(F)(F)F)cc2)C[C@@H]2CC[C@H]1N2C(=O)NC1CCCCC1 | inconclusive: 29.1 µM [cytotoxic, single point] |  |
| O=C1C(Br)C2CCC1C2C(=O)O (stereo unspecified) |  | inactive: -14% |
| CCOc1ccc(N=Cc2c(O)n(-c3cc(C)cc(C)c3)c(=O)[nH]c2=O)cc1 | inconclusive: 0.366 µM [cytotoxic, full curve] |  |
| COc1ccc(-n2c(/C=C/c3ccc(O)cc3)nc3ccccc3c2=O)cc1 | inconclusive: 16.4 µM [cytotoxic, single point] |  |
| CC12CCC3C(CCCC4CC(=O)CCC43C)C1CCC2O (stereo unspecified) | inconclusive: 20.6 µM [cytotoxic, single point] |  |
| CC[N+]12CCC(CC1)C(=C(c1ccccc1)c1ccccc1)C2 | active: 14.6 µM |  |
| C[C@]12CCC3C(CC[C@@H]4[C@H]5O[C@H]5CC[C@]34C)C1CC[C@@H]2O (stereo partly specified) |  | inactive: -8.44% |
| N=C(N)c1c(O)n(C2CCCCC2)c(=O)n(C2CCCCC2)c1=O | active: 20.6 µM |  |
| CNc1cc(Cl)c2nonc2c1[N+](=O)[O-] | inconclusive: 23.1 µM [cytotoxic, single point] |  |
| O=C(COc1ccccc1F)N1CCN(CCN2C(=O)c3cccc4cccc(c34)C2=O)CC1 | inconclusive: 16.4 µM [rising, single point] |  |

| Compound | Potency | activity change, negative = cytotoxic |
| --- | --- | --- |
| C/C(=N\N1CCN(C)CC1)c1c(O)[nH]c(=O)[nH]c1=O |  | inactive: 0.307% |
| COc1cc(/C=C/c2nc3ccccc3c(=O)n2-c2ccc(Br)c(C)c2)ccc1O | inconclusive: 29.1 µM [cytotoxic, single point] |  |
| O=[N+]([O-])c1ccc(N2CCCC(C(F)(F)F)C2)c2ccncc12 (stereo unspecified) | inconclusive: 25.9 µM [cytotoxic, partial curve, poor fit] |  |
| CCS(=O)(=O)CCSP(=O)(OC)OC | inconclusive: 20.6 µM [rising, single point] |  |
| CCOc1ccccc1-n1c(O)c(C=Nc2ccc(N(CC)CC)cc2)c(=O)[nH]c1=O | active: 16.4 µM |  |
| CN(Cc1cccc(-c2ccncc2)c1)C(=O)Oc1ccccc1Cl | active: 14.6 µM |  |
| O=c1[nH]c(=O)n(Cc2ccccc2Cl)c(O)c1/C=C1/C=CC=N1 | active: 23.1 µM |  |
| Cc1ccc(Oc2cc(NN3CCCCC3)c([N+](=O)[O-])cc2[N+](=O)[O-])c([N+](=O)[O-])c1 |  | inactive: 5.45% |
| CCCCCn1c(=O)c(C(=O)NCc2ccc(Cl)cc2)c(O)c2ccccc21 | inconclusive: 16.4 µM [cytotoxic, partial curve, poor fit] |  |
| CCCCn1nnnc1C(CCc1ccccc1)N1CCC(n2c(=O)[nH]c3ccccc32)CC1 (stereo unspecified) | inconclusive: 25.9 µM [cytotoxic, single point] |  |
| C[C@]12CCC3C(CC[C@H]4C[C@@H](O)CC[C@]34C)C1CC[C@@H]2OC(=O)[C@H](N)CCCCN (stereo partly specified) |  | inactive: -11.1% |
| O=C(c1ccc2c(c1)N(Cc1ccccc1)CCS2)N1CCC2(CC1)OCCO2 | inconclusive: 18.4 µM [rising, partial curve, poor fit] |  |
| NCCc1c[nH]c2ccc(OCc3ccccc3)cc12 |  | inactive: 4.39% |
| CCn1c(C)cc(/C=C2\C(=O)NC(=O)N(c3ccccc3C)C2=O)c1C | inconclusive: 18.4 µM [rising, single point] |  |
| COc1c(C)cc(C(=O)C2CCCN(C3CCOCC3)C2)cc1C (stereo unspecified) |  | inactive: -1.95% |
| CC12CCC(=O)C=C1CCC1C2C(O)CC2(C)C(O)CCC12 (stereo unspecified) | inconclusive: 29.1 µM [cytotoxic, single point] |  |
| CC(=O)N1Cc2cnnn2-c2ccccc2C1(C)C#N (stereo unspecified) |  | inactive: 14.4% |
| O=C(C[N+]12CCC(CC1)C(CO)C2)c1ccc([N+](=O)[O-])cc1 (stereo unspecified) |  | inactive: -18.6% |
| CCCCCCn1c(O)c(C=NC2CCCCC2N)c(=O)[nH]c1=O (stereo unspecified) | inconclusive: 29.1 µM [cytotoxic, single point] |  |
| Cc1nc2c(-c3ccccc3)c(C)nn2c(C)c1CCC(=O)N1CCC2(CC1)OCCO2 |  | inactive: -0.88% |
| CN(C)C(=O)Oc1ccc(-c2cn3cc(C(F)(F)F)ccc3n2)cc1 |  | inactive: -3.15% |
| Cc1cccc(C)c1-n1nnnc1C(CCc1ccccc1)N1CCC(n2c(=O)[nH]c3ccccc32)CC1 (stereo unspecified) | inconclusive: 29.1 µM [cytotoxic, single point] |  |
| COC(=O)c1cccc(N=Cc2c(O)n(Cc3ccc(F)cc3)c(=O)[nH]c2=O)c1 |  | inconclusive: -8.26% |
